Measured values as given in publication PMC11744840.

Chains of the proteins cited; added tags and fusions are not shown.
UniProt P06733: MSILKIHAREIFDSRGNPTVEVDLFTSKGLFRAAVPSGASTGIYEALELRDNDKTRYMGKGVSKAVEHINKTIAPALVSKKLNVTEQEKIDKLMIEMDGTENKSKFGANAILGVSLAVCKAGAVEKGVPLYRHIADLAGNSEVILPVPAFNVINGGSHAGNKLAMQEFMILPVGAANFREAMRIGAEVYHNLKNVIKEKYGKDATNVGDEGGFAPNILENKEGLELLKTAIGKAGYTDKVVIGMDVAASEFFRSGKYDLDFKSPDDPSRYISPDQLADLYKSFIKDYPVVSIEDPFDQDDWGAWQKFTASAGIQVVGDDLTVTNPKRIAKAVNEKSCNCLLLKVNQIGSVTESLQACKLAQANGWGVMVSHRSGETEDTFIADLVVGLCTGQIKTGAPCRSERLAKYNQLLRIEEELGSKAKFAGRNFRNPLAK
UniProt Q9UBN7: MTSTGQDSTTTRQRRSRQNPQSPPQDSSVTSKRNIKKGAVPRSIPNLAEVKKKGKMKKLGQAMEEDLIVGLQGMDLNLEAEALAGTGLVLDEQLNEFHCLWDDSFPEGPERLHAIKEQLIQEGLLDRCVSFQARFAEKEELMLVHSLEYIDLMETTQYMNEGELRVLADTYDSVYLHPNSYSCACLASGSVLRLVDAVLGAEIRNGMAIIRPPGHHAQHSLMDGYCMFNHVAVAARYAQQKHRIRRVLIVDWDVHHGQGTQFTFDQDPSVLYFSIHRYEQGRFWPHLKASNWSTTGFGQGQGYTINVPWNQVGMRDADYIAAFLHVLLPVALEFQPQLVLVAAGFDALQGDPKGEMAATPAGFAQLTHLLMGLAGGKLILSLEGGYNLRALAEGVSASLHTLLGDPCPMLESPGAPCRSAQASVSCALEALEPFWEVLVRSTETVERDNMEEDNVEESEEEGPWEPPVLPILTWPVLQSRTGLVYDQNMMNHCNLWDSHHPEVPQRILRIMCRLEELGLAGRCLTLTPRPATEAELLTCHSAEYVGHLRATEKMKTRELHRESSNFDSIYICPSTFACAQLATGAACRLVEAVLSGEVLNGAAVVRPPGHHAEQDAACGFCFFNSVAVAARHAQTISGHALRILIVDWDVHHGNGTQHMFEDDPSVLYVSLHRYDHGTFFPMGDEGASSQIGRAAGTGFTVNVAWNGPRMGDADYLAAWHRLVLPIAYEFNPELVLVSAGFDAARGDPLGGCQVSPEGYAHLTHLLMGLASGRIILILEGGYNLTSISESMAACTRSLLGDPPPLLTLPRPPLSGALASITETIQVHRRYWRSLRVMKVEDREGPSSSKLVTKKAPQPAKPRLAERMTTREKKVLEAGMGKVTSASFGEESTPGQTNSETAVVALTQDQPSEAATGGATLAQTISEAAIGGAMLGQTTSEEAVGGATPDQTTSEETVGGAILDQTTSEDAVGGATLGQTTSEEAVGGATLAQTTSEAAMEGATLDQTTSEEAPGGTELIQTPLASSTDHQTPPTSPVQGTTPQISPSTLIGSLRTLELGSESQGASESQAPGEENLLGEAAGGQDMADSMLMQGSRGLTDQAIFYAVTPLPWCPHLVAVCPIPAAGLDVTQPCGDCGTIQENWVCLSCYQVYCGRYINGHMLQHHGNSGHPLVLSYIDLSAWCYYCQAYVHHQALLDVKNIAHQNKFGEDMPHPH
UniProt P63104: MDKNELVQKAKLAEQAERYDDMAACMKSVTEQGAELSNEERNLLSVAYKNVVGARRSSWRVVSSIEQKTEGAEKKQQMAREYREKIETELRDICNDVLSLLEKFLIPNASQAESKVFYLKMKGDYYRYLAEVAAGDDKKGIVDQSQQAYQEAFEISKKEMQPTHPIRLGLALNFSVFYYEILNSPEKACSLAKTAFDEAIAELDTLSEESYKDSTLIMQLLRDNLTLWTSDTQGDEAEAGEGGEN

Assays:
[1] = target: Enolase 1 (ENO1), endogenous in multiple myeloma cells (human (endogenous in H929)) (UniProt P06733); assay: affinity purification with mass spectrometry; co-IP mass spectrometry assay in which HDAC6 peptides were identified; the bait is not given
[2] = target: Enolase 1 (ENO1), endogenous in multiple myeloma cells (human (endogenous in H929)) (UniProt P06733); assay: affinity purification with mass spectrometry; total lysate of H929 cells, IP-ENO1 against IP-IgG, SDS-PAGE bands analysed by mass spectrometry

binding [1]	binding [2]	Substance
binds		HDAC6, endogenous in multiple myeloma cells (from UniProt Q9UBN7 1-1215) (enzyme)
	binds	YWHAZ (14-3-3ζ), endogenous in multiple myeloma cells (from UniProt P63104 1-245)

No constants are given. Whether binding was seen depends on the method and setting. In cells and extracts the contact can be indirect. Here binding means that the protein was enriched with, or labelled near, the bait; the list need not be complete.
